Minimum inhibitory concentration data for 12 test systems are collected here from the supplement of paper PMC11264405.

Common to all, as to test: minimum inhibitory concentration
Compound in assay [1]: CC(=O)NC[C@H]1CN(c2ccc(N3CCOCC3)c(F)c2)C(=O)O1 [linezolid]
Compound in assay [2]: CCC[C@@H]1C[C@@H](C(=O)N[C@@H]([C@H]2O[C@H](SC)[C@H](O)[C@@H](O)[C@H]2O)[C@H](C)Cl)N(C)C1 [clindamycin]
Compound in assay [3]: CCc1c(Cl)c(O)c(Cl)c(O)c1C(=O)O[C@H]1[C@H](O)[C@H](OC)[C@H](OC/C2=C\C=C\C[C@H](O)/C(C)=C/[C@H](CC)[C@@H](O[C@@H]3OC(C)(C)[C@@H](OC(=O)C(C)C)[C@H](O)[C@@H]3O)/C(C)=C/C(C)=C/C[C@@H]([C@@H](C)O)OC2=O)O[C@@H]1C [fidaxomicin]
Compound in assay [4]: CN(C)c1cc(NC(=O)CNC(C)(C)C)c(O)c2c1C[C@H]1C[C@H]3[C@H](N(C)C)C(O)=C(C(N)=O)C(=O)[C@@]3(O)C(O)=C1C2=O [tigecycline]
Compound in assay [5]: CN[C@H](CC(C)C)C(=O)N[C@H]1C(=O)N[C@@H](CC(N)=O)C(=O)N[C@H]2C(=O)N[C@H]3C(=O)N[C@H](C(=O)N[C@H](C(=O)O)c4cc(O)cc(O)c4-c4cc3ccc4O)[C@H](O)c3ccc(c(Cl)c3)Oc3cc2cc(c3O[C@@H]2O[C@H](CO)[C@@H](O)[C@H](O)[C@H]2O[C@H]2C[C@](C)(N)[C@H](O)[C@H](C)O2)Oc2ccc(cc2Cl)[C@H]1O [vancomycin]
Compound in assay [6]: CO[C@H]1/C=C/O[C@@]2(C)Oc3c(C)c(O)c4c(O)c(c(/C=N/N5CCN(C)CC5)c(O)c4c3C2=O)NC(=O)/C(C)=C\C=C\[C@H](C)[C@H](O)[C@@H](C)[C@@H](O)[C@@H](C)[C@H](OC(C)=O)[C@@H]1C [rifampicin]
Compound in assay [7]: C[C@@H](O)[C@H]1C(=O)N2C(C(=O)O)=C(SCCNC=N)C[C@H]12 [imipenem]
Compound in assay [8]: C[C@@H](O)[C@H]1C(=O)N2C(C(=O)O)=C(S[C@@H]3CN[C@H](C(=O)N(C)C)C3)[C@H](C)[C@H]12 [meropenem]
Compound in assay [9]: Cc1ncc([N+](=O)[O-])n1CCO [metronidazole]

Turning to “Clostridioides difficile PCR ribotype 078 isolate #336 (European region: South, country: Spain, isolate source: Animal, ribotype: 078)”, the minimum inhibitory concentration in assay [1] was 2 µg/mL; in [2], 4 µg/mL; in assay [3], 0.06 µg/mL; in assay [4], < 0.03 µg/mL; in [5] it was 1 µg/mL; in [6] it was < 0.001 µg/mL. Besides, the figures for the minimum inhibitory concentration in [7], in assay [8] and in assay [9] were 2 µg/mL, 2 µg/mL and 0.25 µg/mL, respectively.
Consider “Clostridioides difficile PCR ribotype 078 isolate #337 (European region: South, country: Spain, isolate source: Animal, ribotype: 078)”, for which the minimum inhibitory concentration was 2 µg/mL in assay [1]; 4 µg/mL in assay [2]; 0.03 µg/mL in [3]; < 0.03 µg/mL in [4]; 1 µg/mL in assay [5]; < 0.001 µg/mL in assay [6]. Besides, the results for the minimum inhibitory concentration in assay [7], in assay [8] and in assay [9] were 2 µg/mL, 2 µg/mL and 0.25 µg/mL, respectively.
For the test system “Clostridioides difficile PCR ribotype 078 isolate #338 (European region: South, country: Spain, isolate source: Animal, ribotype: 078)”, the minimum inhibitory concentration in assay [1] was 2 µg/mL; in assay [2] it was > 128 µg/mL; in [3] it was 0.06 µg/mL; in [4] it was < 0.03 µg/mL; in [5], 1 µg/mL; in assay [6], < 0.001 µg/mL. The minimum inhibitory concentration in [7] turned out to be 2 µg/mL; in [8], 2 µg/mL; in assay [9], 0.25 µg/mL.
For the test system “Clostridioides difficile PCR ribotype 078 isolate #339 (European region: South, country: Spain, isolate source: Animal, ribotype: 078)”, the minimum inhibitory concentration in assay [1] was 2 µg/mL; in assay [2] it was 4 µg/mL; in [3], 0.06 µg/mL; in assay [4] it was < 0.03 µg/mL; in assay [5] it was 1 µg/mL; in [6], < 0.001 µg/mL. Also, the values for the minimum inhibitory concentration in assay [7], in [8] and in assay [9] were 2 µg/mL, 2 µg/mL and 0.25 µg/mL, respectively.
As for “Clostridioides difficile PCR ribotype 078 isolate #340 (European region: South, country: Spain, isolate source: Animal, ribotype: 078)”, the minimum inhibitory concentration was 2 µg/mL in [1]; 8 µg/mL in assay [2]; 0.06 µg/mL in [3]; < 0.03 µg/mL in [4]; 1 µg/mL in assay [5]; < 0.001 µg/mL in assay [6]. The results for the minimum inhibitory concentration in assay [7], in [8] and in [9] were 4 µg/mL, 2 µg/mL and 0.25 µg/mL, respectively.
Consider “Clostridioides difficile PCR ribotype 078 isolate #341 (European region: East, country: Romania, isolate source: Animal, ribotype: 078)”, for which the minimum inhibitory concentration in assay [1] was 2 µg/mL; in assay [2] it was 8 µg/mL; in assay [3], 0.06 µg/mL; in assay [4], < 0.03 µg/mL; in assay [5] it was 1 µg/mL; in [6] it was < 0.001 µg/mL. The minimum inhibitory concentration in assay [7] turned out to be 4 µg/mL; in assay [8] it was 2 µg/mL; in [9], 0.25 µg/mL.
For “Clostridioides difficile PCR ribotype 078 isolate #342 (European region: East, country: Romania, isolate source: Animal, ribotype: 078)”, the minimum inhibitory concentration was 2 µg/mL in assay [1]; 8 µg/mL in assay [2]; 0.06 µg/mL in [3]; < 0.03 µg/mL in assay [4]; 1 µg/mL in assay [5]; < 0.001 µg/mL in assay [6]. Moreover, the minimum inhibitory concentration in assay [7] was found to be 4 µg/mL; in assay [8], 2 µg/mL; in assay [9] it was 0.25 µg/mL.
With “Clostridioides difficile PCR ribotype 078 isolate #343 (European region: West, country: France, isolate source: Animal, ribotype: 078)”, the minimum inhibitory concentration in assay [1] is 2 µg/mL; in [2], 16 µg/mL; in assay [3], 0.03 µg/mL; in assay [4], < 0.03 µg/mL; in assay [5], 0.5 µg/mL; in [6], < 0.001 µg/mL. Further, the minimum inhibitory concentration in assay [7] came out at 2 µg/mL; in assay [8], 2 µg/mL; in [9] it was 0.25 µg/mL.
Regarding “Clostridioides difficile PCR ribotype 078 isolate #344 (European region: West, country: France, isolate source: Animal, ribotype: 078)”, the minimum inhibitory concentration was 2 µg/mL in [1]; 2 µg/mL in [2]; 0.06 µg/mL in [3]; < 0.03 µg/mL in [4]; 1 µg/mL in assay [5]; < 0.001 µg/mL in assay [6]. The minimum inhibitory concentration in [7] worked out at 2 µg/mL; in assay [8], 2 µg/mL; in assay [9] it was 0.25 µg/mL.
With “Clostridioides difficile PCR ribotype 078 isolate #345 (European region: West, country: France, isolate source: Animal, ribotype: 078)”, the minimum inhibitory concentration in assay [1] is 2 µg/mL; in assay [2], 2 µg/mL; in assay [3], 0.03 µg/mL; in [4], < 0.03 µg/mL; in assay [5] it was 1 µg/mL; in assay [6], < 0.001 µg/mL. The minimum inhibitory concentration in assay [7] came out at 2 µg/mL; in assay [8], 2 µg/mL; in assay [9] it was 0.25 µg/mL.
With “Clostridioides difficile PCR ribotype 078 isolate #346 (European region: West, country: France, isolate source: Animal, ribotype: 078)”, the minimum inhibitory concentration in assay [1] was 2 µg/mL; in [2], 2 µg/mL; in assay [3] it was 0.03 µg/mL; in assay [4] it was < 0.03 µg/mL; in assay [5] it was 0.5 µg/mL; in assay [6], < 0.001 µg/mL. Besides, the minimum inhibitory concentration in [7] amounted to 2 µg/mL; in assay [8], 2 µg/mL; in assay [9] it was 0.25 µg/mL.
Take “Clostridioides difficile PCR ribotype 078 isolate #347 (European region: West, country: Austria, isolate source: Animal, ribotype: 078)”: the minimum inhibitory concentration in [1] was 2 µg/mL; in assay [2], 16 µg/mL; in assay [3], 0.03 µg/mL; in [4], 0.06 µg/mL; in [5], 2 µg/mL; in [6], < 0.001 µg/mL. The minimum inhibitory concentration came out at 2 µg/mL in assay [7], 2 µg/mL in assay [8] and 0.25 µg/mL in [9].
